Results are given in words; binding and its absence hold for the method and conditions named. In cells and extracts the contact can be indirect.
Key:
[1] = target: YFP‐tagged NPR1 (Arabidopsis thaliana) (UniProt P93002); assay: co-IP; YFP‐tagged bait and FLAG‐4×Myc‐tagged prey coexpressed in N. benthamiana leaves; GFP‐Trap agarose, 4°C for 3 h, IP buffer (50 mM Tris‐HCl pH7.5, 150 mM NaCl, 0.1% TritonX‐100, 0.1% NP‐40); blots with anti‐GFP and anti‐Myc
[2] = target: NPR1 tagged with the N‐terminal portion of YFP (Arabidopsis thaliana) (UniProt P93002); assay: split reporter; BiFC: YN‐ and YC‐tagged proteins under the CaMV 35S promoter, agroinfiltrated N. benthamiana leaves; confocal microscopy of epidermal cells at 2 dpi

Chains of the proteins cited; added tags and fusions are not shown.
UniProt P93002: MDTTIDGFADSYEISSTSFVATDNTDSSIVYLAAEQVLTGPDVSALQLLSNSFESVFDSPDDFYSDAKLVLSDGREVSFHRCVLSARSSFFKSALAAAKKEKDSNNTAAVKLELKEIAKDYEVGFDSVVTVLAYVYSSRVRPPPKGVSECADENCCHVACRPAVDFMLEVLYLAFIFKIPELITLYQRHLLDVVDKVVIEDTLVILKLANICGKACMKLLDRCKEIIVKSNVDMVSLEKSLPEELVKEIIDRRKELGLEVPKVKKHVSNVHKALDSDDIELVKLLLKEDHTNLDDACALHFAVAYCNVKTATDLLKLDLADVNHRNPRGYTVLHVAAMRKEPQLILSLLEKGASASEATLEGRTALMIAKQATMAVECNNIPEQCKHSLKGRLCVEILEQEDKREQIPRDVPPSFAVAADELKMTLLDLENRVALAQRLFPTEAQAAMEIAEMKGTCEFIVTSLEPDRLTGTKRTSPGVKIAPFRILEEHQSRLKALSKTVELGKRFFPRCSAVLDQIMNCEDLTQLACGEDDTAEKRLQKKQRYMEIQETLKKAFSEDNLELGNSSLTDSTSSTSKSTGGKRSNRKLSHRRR
UniProt P05804: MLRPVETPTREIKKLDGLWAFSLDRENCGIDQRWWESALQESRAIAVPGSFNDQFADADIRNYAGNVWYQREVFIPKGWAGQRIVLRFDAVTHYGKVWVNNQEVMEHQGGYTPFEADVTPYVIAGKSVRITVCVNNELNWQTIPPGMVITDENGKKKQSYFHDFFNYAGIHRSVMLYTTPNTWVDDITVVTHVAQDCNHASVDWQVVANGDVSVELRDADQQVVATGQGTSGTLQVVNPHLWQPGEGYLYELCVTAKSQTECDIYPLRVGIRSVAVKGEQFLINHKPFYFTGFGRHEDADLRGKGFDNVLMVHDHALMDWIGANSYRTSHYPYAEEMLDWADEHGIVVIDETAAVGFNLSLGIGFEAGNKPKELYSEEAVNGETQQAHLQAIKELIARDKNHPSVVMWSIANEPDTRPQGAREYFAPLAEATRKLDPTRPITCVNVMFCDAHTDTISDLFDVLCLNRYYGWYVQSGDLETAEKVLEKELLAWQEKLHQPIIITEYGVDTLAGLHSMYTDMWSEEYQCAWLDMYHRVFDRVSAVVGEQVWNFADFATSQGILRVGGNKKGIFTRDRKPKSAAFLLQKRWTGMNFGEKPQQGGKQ

Substance	binding [1]	binding [2]
FLAG‐4×Myc‐tagged GUS (from UniProt P05804 1-603) (enzyme)	no binding	
β‐glucuronidase (GUS), YC‐tagged (from UniProt P05804 1-603) (enzyme)		no binding

— PMC12060747
